Results are given in words; binding and its absence hold for the method and conditions named. In cells and extracts the contact can be indirect. These calls come from enrichment with a bait or labelling near it, and not all partners need be listed.
Molecular target: OneSTrEP-GlRac (Giardia lamblia) (UniProt A8BPK1)
Test: affinity purification with mass spectrometry; OS-GlRac lysates on Strep-Tactin beads, eluates by LC-MS/MS; trophozoites and encysting cells at 8 h p.i.e. (two-step protocol); triplicate; wild type cells as control for non-specific binding to the beads

The chains behind the UniProt entries cited, without tags or fusion partners. Where a name states a change or a piece, a line headed by the entry shows the natural chain unless it says otherwise.
UniProt A8BPK1: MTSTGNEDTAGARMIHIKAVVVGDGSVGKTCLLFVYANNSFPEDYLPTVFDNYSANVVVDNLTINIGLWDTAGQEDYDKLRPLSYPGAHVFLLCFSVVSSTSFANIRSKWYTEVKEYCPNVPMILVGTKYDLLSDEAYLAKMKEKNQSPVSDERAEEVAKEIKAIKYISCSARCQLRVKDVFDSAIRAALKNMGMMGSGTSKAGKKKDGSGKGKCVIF
UniProt E2RTZ2: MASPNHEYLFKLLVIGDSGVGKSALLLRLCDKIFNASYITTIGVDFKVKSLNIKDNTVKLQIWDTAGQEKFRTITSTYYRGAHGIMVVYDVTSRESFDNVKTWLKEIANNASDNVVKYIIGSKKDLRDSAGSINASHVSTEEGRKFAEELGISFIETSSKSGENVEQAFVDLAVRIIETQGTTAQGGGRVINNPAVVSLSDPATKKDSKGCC
UniProt A0A644F2H1: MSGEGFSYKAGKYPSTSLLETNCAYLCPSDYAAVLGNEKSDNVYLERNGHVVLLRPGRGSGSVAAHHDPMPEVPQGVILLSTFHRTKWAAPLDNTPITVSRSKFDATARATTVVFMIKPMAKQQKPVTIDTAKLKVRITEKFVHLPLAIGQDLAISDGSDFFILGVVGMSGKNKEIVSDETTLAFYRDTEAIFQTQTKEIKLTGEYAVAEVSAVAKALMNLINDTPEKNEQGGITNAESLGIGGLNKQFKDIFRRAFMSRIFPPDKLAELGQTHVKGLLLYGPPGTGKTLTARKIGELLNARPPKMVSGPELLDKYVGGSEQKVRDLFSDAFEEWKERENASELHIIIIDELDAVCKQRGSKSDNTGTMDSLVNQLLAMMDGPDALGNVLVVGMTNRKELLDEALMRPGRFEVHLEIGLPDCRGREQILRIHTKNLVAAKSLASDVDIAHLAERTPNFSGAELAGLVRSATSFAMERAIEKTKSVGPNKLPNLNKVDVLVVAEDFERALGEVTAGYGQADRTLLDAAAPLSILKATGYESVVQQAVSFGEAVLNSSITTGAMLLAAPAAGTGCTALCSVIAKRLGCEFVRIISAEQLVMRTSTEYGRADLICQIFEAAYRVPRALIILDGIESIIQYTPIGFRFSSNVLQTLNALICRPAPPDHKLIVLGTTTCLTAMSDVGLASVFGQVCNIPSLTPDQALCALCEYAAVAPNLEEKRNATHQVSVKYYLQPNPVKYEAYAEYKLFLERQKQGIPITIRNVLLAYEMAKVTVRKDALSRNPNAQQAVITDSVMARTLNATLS
UniProt E2RU17: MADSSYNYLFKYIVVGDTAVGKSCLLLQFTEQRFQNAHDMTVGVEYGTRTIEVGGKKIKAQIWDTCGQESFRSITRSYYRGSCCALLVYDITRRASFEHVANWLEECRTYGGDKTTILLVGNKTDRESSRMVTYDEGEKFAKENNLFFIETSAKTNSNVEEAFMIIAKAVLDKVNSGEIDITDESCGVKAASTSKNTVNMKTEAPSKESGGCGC
UniProt A8B4T8: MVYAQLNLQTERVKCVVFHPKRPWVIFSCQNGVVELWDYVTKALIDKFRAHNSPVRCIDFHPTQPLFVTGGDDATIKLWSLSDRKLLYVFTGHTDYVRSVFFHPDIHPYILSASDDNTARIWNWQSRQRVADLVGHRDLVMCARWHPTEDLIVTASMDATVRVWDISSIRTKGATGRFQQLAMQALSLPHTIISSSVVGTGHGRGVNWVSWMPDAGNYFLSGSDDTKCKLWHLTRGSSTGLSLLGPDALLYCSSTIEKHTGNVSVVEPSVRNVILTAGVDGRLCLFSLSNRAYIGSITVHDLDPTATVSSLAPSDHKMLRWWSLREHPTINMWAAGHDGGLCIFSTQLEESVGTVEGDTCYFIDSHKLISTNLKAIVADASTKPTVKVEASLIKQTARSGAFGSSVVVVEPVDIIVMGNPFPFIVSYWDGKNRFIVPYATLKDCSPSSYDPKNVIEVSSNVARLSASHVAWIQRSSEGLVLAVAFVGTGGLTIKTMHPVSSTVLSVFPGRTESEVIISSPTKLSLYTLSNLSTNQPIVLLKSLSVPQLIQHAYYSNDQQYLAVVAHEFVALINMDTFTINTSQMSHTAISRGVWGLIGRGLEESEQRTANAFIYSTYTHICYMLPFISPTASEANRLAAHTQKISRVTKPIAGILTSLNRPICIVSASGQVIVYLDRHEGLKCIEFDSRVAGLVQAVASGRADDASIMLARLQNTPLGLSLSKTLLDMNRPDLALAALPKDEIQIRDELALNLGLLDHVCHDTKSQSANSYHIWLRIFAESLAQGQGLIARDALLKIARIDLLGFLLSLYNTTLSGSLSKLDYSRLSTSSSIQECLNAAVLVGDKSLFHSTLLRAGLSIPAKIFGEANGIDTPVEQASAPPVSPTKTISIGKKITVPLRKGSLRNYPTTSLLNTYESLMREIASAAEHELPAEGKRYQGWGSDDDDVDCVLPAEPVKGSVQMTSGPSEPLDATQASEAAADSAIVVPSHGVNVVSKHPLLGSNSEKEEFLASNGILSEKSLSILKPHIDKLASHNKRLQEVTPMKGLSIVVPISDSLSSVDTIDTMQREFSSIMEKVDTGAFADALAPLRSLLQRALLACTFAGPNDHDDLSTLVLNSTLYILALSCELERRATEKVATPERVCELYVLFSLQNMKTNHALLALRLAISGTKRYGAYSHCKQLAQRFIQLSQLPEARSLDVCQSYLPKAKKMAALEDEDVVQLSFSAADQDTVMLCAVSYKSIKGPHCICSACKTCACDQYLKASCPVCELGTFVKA
UniProt A0A644F5E3: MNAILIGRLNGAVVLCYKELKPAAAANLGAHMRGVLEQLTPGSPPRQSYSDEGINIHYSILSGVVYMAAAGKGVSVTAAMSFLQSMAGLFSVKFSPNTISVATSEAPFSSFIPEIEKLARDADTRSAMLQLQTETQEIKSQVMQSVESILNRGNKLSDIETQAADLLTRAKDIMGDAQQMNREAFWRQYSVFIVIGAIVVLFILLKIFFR
UniProt A0A644F713: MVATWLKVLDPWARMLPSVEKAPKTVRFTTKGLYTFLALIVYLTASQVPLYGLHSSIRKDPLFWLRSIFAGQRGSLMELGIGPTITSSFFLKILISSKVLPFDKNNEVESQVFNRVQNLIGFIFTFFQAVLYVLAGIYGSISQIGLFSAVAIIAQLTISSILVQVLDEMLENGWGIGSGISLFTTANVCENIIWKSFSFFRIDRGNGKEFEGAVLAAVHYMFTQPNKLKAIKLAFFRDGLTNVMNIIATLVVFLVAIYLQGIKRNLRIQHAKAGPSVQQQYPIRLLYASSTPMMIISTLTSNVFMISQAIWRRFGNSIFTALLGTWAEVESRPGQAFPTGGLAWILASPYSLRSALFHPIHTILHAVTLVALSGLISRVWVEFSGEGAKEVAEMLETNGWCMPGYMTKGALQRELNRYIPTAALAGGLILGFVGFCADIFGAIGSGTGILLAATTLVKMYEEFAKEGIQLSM
UniProt A8BAR6: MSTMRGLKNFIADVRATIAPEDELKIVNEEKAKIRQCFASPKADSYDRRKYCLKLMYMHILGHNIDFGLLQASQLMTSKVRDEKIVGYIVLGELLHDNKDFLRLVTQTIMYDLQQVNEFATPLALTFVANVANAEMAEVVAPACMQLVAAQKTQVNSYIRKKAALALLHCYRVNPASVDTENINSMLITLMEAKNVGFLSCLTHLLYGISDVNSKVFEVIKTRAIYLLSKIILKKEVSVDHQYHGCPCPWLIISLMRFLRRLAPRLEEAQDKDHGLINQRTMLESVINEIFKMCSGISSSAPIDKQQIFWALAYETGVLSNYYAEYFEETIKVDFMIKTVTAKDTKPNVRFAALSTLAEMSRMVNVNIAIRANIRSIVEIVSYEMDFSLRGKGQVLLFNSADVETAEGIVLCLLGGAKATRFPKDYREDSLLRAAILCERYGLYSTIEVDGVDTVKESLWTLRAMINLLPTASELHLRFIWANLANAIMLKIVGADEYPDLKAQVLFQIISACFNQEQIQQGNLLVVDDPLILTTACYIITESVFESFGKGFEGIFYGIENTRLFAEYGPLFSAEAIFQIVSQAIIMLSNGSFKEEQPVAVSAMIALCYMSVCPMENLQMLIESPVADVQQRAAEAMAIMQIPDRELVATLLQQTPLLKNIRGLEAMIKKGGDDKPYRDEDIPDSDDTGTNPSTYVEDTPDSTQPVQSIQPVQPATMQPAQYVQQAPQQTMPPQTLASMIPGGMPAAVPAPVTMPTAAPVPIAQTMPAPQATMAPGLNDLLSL
UniProt A8BDQ0: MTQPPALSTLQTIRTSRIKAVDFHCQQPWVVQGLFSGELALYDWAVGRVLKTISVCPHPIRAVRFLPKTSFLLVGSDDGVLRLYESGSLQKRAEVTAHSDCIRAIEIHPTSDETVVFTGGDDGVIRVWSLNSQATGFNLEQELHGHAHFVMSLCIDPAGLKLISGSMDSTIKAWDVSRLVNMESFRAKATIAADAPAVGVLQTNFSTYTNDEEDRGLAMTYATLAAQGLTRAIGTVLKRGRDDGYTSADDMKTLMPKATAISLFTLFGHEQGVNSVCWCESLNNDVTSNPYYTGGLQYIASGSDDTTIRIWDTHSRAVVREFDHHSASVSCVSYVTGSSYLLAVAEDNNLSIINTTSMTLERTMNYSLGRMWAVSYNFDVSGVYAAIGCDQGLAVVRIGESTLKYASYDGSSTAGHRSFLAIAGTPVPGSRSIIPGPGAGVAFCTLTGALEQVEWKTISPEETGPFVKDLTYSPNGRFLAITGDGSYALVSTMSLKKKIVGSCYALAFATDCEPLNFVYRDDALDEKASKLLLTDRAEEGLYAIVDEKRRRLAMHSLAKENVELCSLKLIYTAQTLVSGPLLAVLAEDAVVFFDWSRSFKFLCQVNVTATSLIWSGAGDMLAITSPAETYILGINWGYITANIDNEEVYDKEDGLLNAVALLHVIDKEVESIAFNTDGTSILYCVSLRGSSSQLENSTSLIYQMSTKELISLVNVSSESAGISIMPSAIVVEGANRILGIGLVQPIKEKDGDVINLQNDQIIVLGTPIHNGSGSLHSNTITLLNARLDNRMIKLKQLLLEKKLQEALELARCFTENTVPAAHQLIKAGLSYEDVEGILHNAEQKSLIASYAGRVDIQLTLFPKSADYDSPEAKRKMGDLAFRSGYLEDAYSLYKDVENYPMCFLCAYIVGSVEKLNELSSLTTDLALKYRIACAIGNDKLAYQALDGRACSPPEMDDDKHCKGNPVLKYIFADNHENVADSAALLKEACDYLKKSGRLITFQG

Substance	binding
GlRab1a (from UniProt E2RTZ2)	binds
GlNSF (from UniProt A0A644F2H1)	binds
GlRab2a (from UniProt E2RU17)	binds
GlCoatomer α subunit (from UniProt A8B4T8)	binds
Glv-SNARE (from UniProt A0A644F5E3)	binds

Results, then the substance that gave them:

binding	Substance
binds	GlSec61-α (from UniProt A0A644F713)
binds	Glα-adaptin (from UniProt A8BAR6)
binds	GlCoatomer β′ subunit (from UniProt A8BDQ0)

Source: paper PMC8111296
